Data on one molecule can be found in publication PMC10993126, “Capture of endogenous lipids in peptidiscs and effect on protein stability and activity” (iScience, 2024).

These are yes or no findings as the source states them, for the method shown. Some results given as binding are weak or reduced against the parent protein; the word gives no strength.

The target in the assay is His6-tagged MsbA (UniProt P60752). Briefly: native gel or EMSA; 5-13% native PAGE with Coomassie staining; DDC-MsbA preparation (reconstituted in peptidisc directly from the detergent extract, high lipid content); both purified.

B1: His6-tagged MsbA (natural protein, UniProt P60752 1-582, looked up)
chain: MHNDKDLSTWQTFRRLWPTIAPFKAGLIVAGVALILNAASDTFMLSLLKPLLDDGFGKTDRSVLVWMPLVVIGLMILRGITSYVSSYCISWVSGKVVMTMRRRLFGHMMGMPVSFFDKQSTGTLLSRITYDSEQVASSSSGALITVVREGASIIGLFIMMFYYSWQLSIILIVLAPIVSIAIRVVSKRFRNISKNMQNTMGQVTTSAEQMLKGHKEVLIFGGQEVETKRFDKVSNRMRLQGMKMVSASSISDPIIQLIASLALAFVLYAASFPSVMDSLTAGTITVVFSSMIALMRPLKSLTNVNAQFQRGMAACQTLFTILDSEQEKDEGKRVIERATGDVEFRNVTFTYPGRDVPALRNINLKIPAGKTVALVGRSGSGKSTIASLITRFYDIDEGEILMDGHDLREYTLASLRNQVALVSQNVHLFNDTVANNIAYARTEQYSREQIEEAARMAYAMDFINKMDNGLDTVIGENGVLLSGGQRQRIAIARALLRDSPILILDEATSALDTESERAIQAALDELQKNRTSLVIAHRLSTIEKADEIVVVEDGVIVERGTHNDLLEHRGVYAQLHKMQFGQ
notes: The same protein was prepared with different amounts of endogenous lipid (DDC, DLW, DHW in peptidisc; DDM in detergent); also called DDC-MsbA; DLW-MsbA; source: E. coli BL21(DE3), membranes solubilized with DDM, purified (Ni-NTA), reconstituted in peptidiscs or kept in DDM
Regarding B1, the binding result is recorded as “binds”.
